# In PubChem BioAssay AID602358 (National Center for Advancing Translational Sciences (NCATS), 2012):
# Protein sequences, listed by entry. Tags and fused reporters are not part of them.
# UniProt P08659, whole entry, looked up: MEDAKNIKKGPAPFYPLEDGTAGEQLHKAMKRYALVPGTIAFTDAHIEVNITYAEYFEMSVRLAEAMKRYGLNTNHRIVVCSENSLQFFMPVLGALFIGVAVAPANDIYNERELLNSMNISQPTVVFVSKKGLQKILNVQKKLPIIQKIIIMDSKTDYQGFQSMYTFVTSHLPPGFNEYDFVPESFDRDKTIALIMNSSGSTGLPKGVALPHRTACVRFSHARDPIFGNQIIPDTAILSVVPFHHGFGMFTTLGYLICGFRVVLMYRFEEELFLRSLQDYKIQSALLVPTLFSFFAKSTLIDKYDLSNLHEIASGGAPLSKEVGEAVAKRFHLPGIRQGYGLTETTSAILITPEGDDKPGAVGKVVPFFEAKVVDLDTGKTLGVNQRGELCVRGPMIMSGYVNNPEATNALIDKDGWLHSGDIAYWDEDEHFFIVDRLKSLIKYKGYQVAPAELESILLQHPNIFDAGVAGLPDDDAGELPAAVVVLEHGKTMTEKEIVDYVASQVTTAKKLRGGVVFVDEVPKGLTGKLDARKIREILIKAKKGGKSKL
# The inconclusive results got no clear call from the source; some entries with a clear call stand among them for comparison. Potencies beside an inconclusive call are fits to weak or partial responses and may not hold up. Activity calls are given as the source filed them. The call rests on the fitted dose curve; in most records, active means well fitted inhibition curve with a large enough effect; inconclusive means small, poorly fitted or top-dose-only effect; inactive means flat fitted curve, though single readings scatter.
# Target: Luciferin 4-monooxygenase (Photinus pyralis) (UniProt P08659)
# Assay: FLuc inhibitory activity for the follow-up compounds in a biochemical assay with Km concentrations of substrate and 500microM CoASH
# Details: purified FLuc, Km substrates + 500 uM CoASH, luminescence; series mostly up to 57.5 µM
# Excerpt: NCGC Assay Overview: Firefly (Photinus pyralis) luciferase is one of the most commonly used transcriptional reporters. It is considered one of the more dynamically responsive reporters - that is, responsive to changes in reporter transcription - as it requires no post-translational modifications and is enzymatically active directly after protein synthesis (Wood, 1998). With no endogenous expression in mammalian cells and without the requirement of external excitation, it offers very little background signal, thus generally providing excellent signal to background for most assays. Previous profiling work to determine the prevalence of compounds that affect FLuc enzymatic activity (PubChem AID 411) identified that ~3% of the MLSMR library (then at ~72K) inhibited FLuc. […] Of the compounds identified in this profile that inhibited FLuc, 151 compounds were selected for further analysis, in an effort to better understand their mode of inhibiting FLuc. The assay described here was to determine the activity of the compounds in an FLuc assay that contained KM concentrations of substrates and 500uM CoASH.
# NCGC Assay Protocol Summary: Reagents: 50mM Tris acetate, pH 7.5; 10mM Mg acetate; 10uM D-luciferin (Sigma #L9504); 10uM ATP; 0.01% Tween-20; 0.05% BSA; 10nM P. pyralis luciferase (Sigma #L9506); 500 uM CoASH Control compounds used were two known firefly luciferase inhibitors (3-(5-(3-chlorophenyl)-1,2,4-oxadiazol-3-yl)benzoic acid and 5-(2-fluorophenyl)-3-phenyl-1,2,4-oxadiazole), and DMSO. Three microliters containing firefly luciferase substrates in buffer (final concentrations: 50mM Tris acetate, pH 7.5, 10mM Mg acetate, 0.01% Tween-20, 0.05% BSA, 10uM D-luciferin, 10uM ATP, and 500 uM CoASH) are dispensed into each well of a Greiner white, solid-bottom 1536-well format plate using a flying reagent dispenser (FRD). These assay plates were then treated with 23nL of compound or DMSO using a Kalypsys pin tool, which allows for delivery of a 12-point intraplate titration of each compound to the assay plate (quantitative HTS), with a final compound concentrations ranging from approximately ~60uM to 0.3nM. One microliter of firefly luciferase in 500mM Tris-acetate buffer was then delivered by FRD to each well for a final enzyme concentration of 10nM. Luciferase activity was then measured using a ViewLux CCD imager (PerkinElmer), with an average exposure time of 2-30 seconds (2X binning, medium/high gain).
row,SMILES,Potency
1,COc1ccc2nc(NC(=O)CCc3ccc(OC)c(OC)c3)sc2c1,inactive
2,O=C(O)c1cccc(NC(=O)c2ccc(Cl)c(S(=O)(=O)N3CCCCCC3)c2)c1,active: 2.91 µM
3,COc1cc(OC)cc(C(=O)Nc2ccccc2-c2nc3ccccc3s2)c1,inactive
4,O=C(Nc1ccc(Cl)cc1-c1nc2ccccc2s1)c1ccco1,"inconclusive: 36.6 µM [inhibitor, partial curve, poor fit]"
5,COc1ccc(CC(=O)Nc2ccc(-c3nc4ccccc4s3)c(C)c2)cc1,"inconclusive: 20.6 µM [inhibitor, partial curve]"
6,CCCOc1cccc(C(=O)Nc2ccc(-c3nc4ccccc4s3)c(Cl)c2)c1,"inconclusive: 25.9 µM [inhibitor, partial curve, poor fit]"
7,O=C(Nc1c(Cl)cc(Cl)cc1-c1nc2ccccc2s1)c1ccc(Br)o1,inactive
8,CCCC(=O)Nc1nc2ccc(OCC)cc2s1,active: 10.3 µM
9,CC(C)(C)NC(=O)c1ccccc1-c1nc2ccccc2s1,"inconclusive: 46.1 µM [inhibitor, partial curve, poor fit]"
10,COc1ccc(C(=O)Nc2cccc(C(=O)O)c2)cc1S(=O)(=O)N1CCCC1,"inconclusive: 32.6 µM [inhibitor, partial curve]"
11,O=C(O)c1ccc(NC(=O)c2cccc(C(=O)Nc3ccc(C(=O)O)cc3)c2)cc1,"inconclusive: 18.3 µM [inhibitor, partial curve, poor fit]"
12,COc1cccc(OC)c1C(=O)Nc1cccc(C(=O)Nc2cccc(C(=O)O)c2)c1,"inconclusive: 23.1 µM [inhibitor, partial curve]"
13,Cc1ccc2sc(-c3ccc(NC(=O)c4cc(-n5cnnc5)ccc4Cl)cc3)nc2c1,active: 1.63 µM
14,O=C(O)c1cccc(NC(=O)c2ccc(S(=O)(=O)c3ccccc3)cc2)c1,"inconclusive: 20.6 µM [inhibitor, partial curve]"
15,O=C(Nc1ccccc1C(=O)O)c1cc(S(=O)(=O)Nc2ccccc2)ccc1Cl,inactive
16,O=C(O)c1cccc(NC(=O)c2cccc(S(=O)(=O)N3CCc4ccccc43)c2)c1,"inconclusive: 36.6 µM [inhibitor, partial curve, poor fit]"
17,O=S(=O)(c1ccc(-c2nc3ccccc3s2)cc1)N1CCCC1,"inconclusive: 0.73 µM [inhibitor, partial curve, poor fit]"
18,COc1ccc2nc(NC(=O)c3ccc(S(=O)(=O)N4CCCC(C)C4)cc3)sc2c1 (stereo not given),inactive
19,Nc1ccc2nc(-c3ccccc3)sc2c1,active: 0.058 µM
20,Cc1ccc(S(=O)(=O)N2CCN(C(=O)c3ccccc3-c3nc4ccccc4s3)CC2)c(C)c1,inactive

# An excerpt from above in order of number of heavy atoms, low to high.
row,SMILES,Potency
9,CC(C)(C)NC(=O)c1ccccc1-c1nc2ccccc2s1,"inconclusive: 46.1 µM [inhibitor, partial curve, poor fit]"
17,O=S(=O)(c1ccc(-c2nc3ccccc3s2)cc1)N1CCCC1,"inconclusive: 0.73 µM [inhibitor, partial curve, poor fit]"
4,O=C(Nc1ccc(Cl)cc1-c1nc2ccccc2s1)c1ccco1,"inconclusive: 36.6 µM [inhibitor, partial curve, poor fit]"
7,O=C(Nc1c(Cl)cc(Cl)cc1-c1nc2ccccc2s1)c1ccc(Br)o1,inactive
14,O=C(O)c1cccc(NC(=O)c2ccc(S(=O)(=O)c3ccccc3)cc2)c1,"inconclusive: 20.6 µM [inhibitor, partial curve]"
10,COc1ccc(C(=O)Nc2cccc(C(=O)O)c2)cc1S(=O)(=O)N1CCCC1,"inconclusive: 32.6 µM [inhibitor, partial curve]"
2,O=C(O)c1cccc(NC(=O)c2ccc(Cl)c(S(=O)(=O)N3CCCCCC3)c2)c1,active: 2.91 µM
18,COc1ccc2nc(NC(=O)c3ccc(S(=O)(=O)N4CCCC(C)C4)cc3)sc2c1 (stereo not given),inactive
13,Cc1ccc2sc(-c3ccc(NC(=O)c4cc(-n5cnnc5)ccc4Cl)cc3)nc2c1,active: 1.63 µM

# More results.

row,SMILES,Potency
1,CCOC(=O)N1CCN(CC(=O)Nc2nc3ccc(OC)cc3s2)CC1,"inconclusive: 23.1 µM [inhibitor, partial curve, poor fit]"
2,COc1ccc(C(=O)Nc2ccccc2C(=O)Nc2ccc(C(=O)O)cc2)cc1,active: 0.517 µM
3,COc1ccc(C(=O)Nc2ccccc2-c2nc3ccccc3s2)c(OC)c1,inactive
4,Cc1ccc(C(=O)Nc2ccc(C(=O)O)cc2)cc1S(=O)(=O)NCc1ccccc1,inactive
5,COc1ccc2nc(NC(=O)C3CCN(S(=O)(=O)c4cccs4)CC3)sc2c1,"inconclusive: 16.3 µM [inhibitor, partial curve, poor fit]"
6,O=C(Nc1ccccc1C(=O)O)c1cccc(S(=O)(=O)Nc2ccc(Br)cc2)c1,"inconclusive: 46.1 µM [inhibitor, partial curve, poor fit]"
7,Cc1ccc(C(=O)Nc2ccc(C(=O)O)cc2)cc1S(=O)(=O)Nc1ccccc1,inactive
8,Cc1ccc(S(=O)(=O)N2CCOCC2)cc1C(=O)Nc1ccccc1C(=O)O,inactive
9,COc1ccc(CC(=O)Nc2cccc(C(=O)Nc3ccccc3C(=O)O)c2)cc1OC,"inconclusive: 32.6 µM [inhibitor, partial curve, poor fit]"
10,O=C(Nc1ccccc1C(=O)O)c1cccc(NC(=O)c2ccco2)c1,active: 6.51 µM
11,Cc1ccc(NS(=O)(=O)c2ccc(Cl)c(C(=O)Nc3cccc(C(=O)O)c3)c2)cc1,inactive
12,O=C(O)c1cccc(NC(=O)c2cccc(S(=O)(=O)N3CCc4ccccc4C3)c2)c1,"inconclusive: 46.1 µM [inhibitor, partial curve, poor fit]"
13,O=C(O)c1cccc(NC(=O)c2cccc(S(=O)(=O)N3CCCCC3)c2)c1,"inconclusive: 18.3 µM [inhibitor, partial curve]"
14,COc1cc(C(=O)Nc2cc(C)c(O)c(-c3nc4ccccc4s3)c2)cc(OC)c1OC,"inconclusive: 0.0651 µM [inhibitor, partial curve, poor fit]"
15,O=C(Nc1ccccc1C(=O)O)c1cccc(C(=O)Nc2ccccc2C(=O)O)c1,"inconclusive: 13 µM [inhibitor, full curve]"
16,O=C(Nc1ccccc1C(=O)O)c1cc(S(=O)(=O)NCc2ccccc2)ccc1Cl,inactive
17,COc1ccc2nc(NC(=O)C3CCN(S(=O)(=O)c4cccnc4)CC3)sc2c1,"inconclusive: 23.1 µM [inhibitor, partial curve, poor fit]"
18,O=C(O)c1cccc(NC(=O)c2cccc(S(=O)(=O)Nc3cccc(F)c3)c2)c1,inactive
19,Cc1ccc(C(=O)Nc2cccc(C(=O)O)c2)cc1S(=O)(=O)N1CCCCC1,active: 3.66 µM
20,CC(C)c1ccc(C(=O)Nc2ccc(-c3nc4ccccc4s3)c(Cl)c2)cc1,"inconclusive: 18.3 µM [inhibitor, partial curve, poor fit]"
